Reference: PubChem BioAssay AID1671195 (Yale University, 2021)
Purpose: 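Genes whose knockdown alters LDL uptake in liver cancer cells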 (primary screen). Cell system: human Huh7 hepatoma cells. Reagents: siRNA pool against human genes, 18 nM. Time to read-out: about 2 to 2.5 days of knockdown, then 8 h LDL uptake. Challenge: DiI-labelled LDL at 30 µg/ml for 8 h, in lipoprotein-deficient serum medium. Measured: 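Per-cell DiI-LDL intensity by automated imaging; well means scaled to the plate median and given as a robust z-score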. Reading the numbers: robust z-score: higher = more LDL uptake after knockdown. Call rule: 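Active when two or more replicates show a robust z-score above 2 or below -2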.
In all, the deposit lists about 22,000 reagents; this is an unselected part. About 1,510 of them (6.9%) were called active. 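Active includes knockdowns raising or lowering LDL uptake; positive z-scores mean more uptake, negative mean less.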 Reagent sequences are not shown.

NDUFA3
- robust z-score, replicate 1: -0.578
- robust z-score, replicate 2: -0.917
- robust z-score, replicate 3: -1.81
- outcome: inactive

ANO6
- robust z-score, replicate 1: 0.981
- robust z-score, replicate 2: 0.343
- robust z-score, replicate 3: -0.0396
- outcome: inactive

CACNB4
- robust z-score, replicate 1: 0.289
- robust z-score, replicate 2: 1.13
- robust z-score, replicate 3: 0.808
- outcome: inactive

LOC441593 (retired record)
- robust z-score, replicate 1: 0.699
- robust z-score, replicate 2: -0.469
- robust z-score, replicate 3: -0.00116
- outcome: inactive

MATK
- robust z-score, replicate 1: 0.291
- robust z-score, replicate 2: 0.96
- robust z-score, replicate 3: 0.721
- outcome: inactive

ECE1
- robust z-score, replicate 1: 0.941
- robust z-score, replicate 2: 0.487
- robust z-score, replicate 3: 0.529
- outcome: inactive

APC
- robust z-score, replicate 1: 0.86
- robust z-score, replicate 2: 0.764
- robust z-score, replicate 3: 2.09
- outcome: inactive

PPP1R10
- robust z-score, replicate 1: -1.29
- robust z-score, replicate 2: -0.886
- robust z-score, replicate 3: -1.03
- outcome: inactive

TBCA
- robust z-score, replicate 1: 0.349
- robust z-score, replicate 2: -0.342
- robust z-score, replicate 3: 0.407
- outcome: inactive

Targets listed so far whose target name begins with A or a:
ANO6
- robust z-score, replicate 1: 0.981
- robust z-score, replicate 2: 0.343
- robust z-score, replicate 3: -0.0396
- outcome: inactive

APC
- robust z-score, replicate 1: 0.86
- robust z-score, replicate 2: 0.764
- robust z-score, replicate 3: 2.09
- outcome: inactive

The list goes on:
CTNNB1
- robust z-score, replicate 1: 0.452
- robust z-score, replicate 2: -0.0138
- robust z-score, replicate 3: 0.493
- outcome: inactive

TCAIM
- robust z-score, replicate 1: -1.24
- robust z-score, replicate 2: -1.19
- robust z-score, replicate 3: -1.14
- outcome: inactive

NOP2
- robust z-score, replicate 1: -0.85
- robust z-score, replicate 2: -0.275
- robust z-score, replicate 3: -0.988
- outcome: inactive

ABCA6
- robust z-score, replicate 1: 1.03
- robust z-score, replicate 2: 1.23
- robust z-score, replicate 3: 1.57
- outcome: inactive

LOC389905 (retired record)
- robust z-score, replicate 1: 0.782
- robust z-score, replicate 2: 0.732
- robust z-score, replicate 3: 0.215
- outcome: inactive

ERBB2
- robust z-score, replicate 1: -0.0475
- robust z-score, replicate 2: -0.409
- robust z-score, replicate 3: -0.648
- outcome: inactive

DAAM1
- robust z-score, replicate 1: 2.04
- robust z-score, replicate 2: 0.673
- robust z-score, replicate 3: 1.2
- outcome: inactive
